# Where a name gives a salt, the structure may show the parent alone. This is one part of the list. Single values of this set are uncertain.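 Optical density at 600 nm measured yeast growth. Because the two-hybrid strains grew without histidine, growth required Pex3–Pex19 binding. Trypanosome selectivity meant a compound inhibited the trypanosome-pair strain's growth by more than 65% but the human-pair strain's by less than 65%.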
# What was measured:
# [1] = system: Saccharomyces cerevisiae HF7c pdr5Δ; assay: general growth inhibition of yeast HF7c pdr5Δ in -Leu -Trp medium, relative to DMSO; higher = stronger general growth inhibition; conditions: 100 µM; 24 h
# [2] = system: human PEX3-PEX19 interaction (yeast two-hybrid); assay: growth inhibition of yeast two-hybrid strain reporting HsPex3-HsPex19 interaction, relative to DMSO; higher = stronger inhibition of human Pex3-Pex19 interaction / growth; conditions: 100 µM; 24 h; 3-aminotriazole 10 mM
# [3] = system: T. brucei Pex3-Pex19 interaction (yeast two-hybrid); assay: growth inhibition of yeast two-hybrid strain reporting TbPex3-TbPex19 interaction, relative to DMSO; higher = stronger inhibition of T. brucei Pex3-Pex19 interaction / growth; conditions: 100 µM; 24 h
Compound,general growth inhibition [1] [%],growth inhibition [2] [%],growth inhibition [3] [%]
C[C@]12CC[C@@H]3c4ccc(O)cc4C[C@@H](CCCCCCCCC[S+]([O-])CCCC(F)(F)C(F)(F)F)[C@H]3[C@@H]1CC[C@@H]2O (stereo not given in full) [Fulvestrant],44.3,35.1,56.6
Cc1ccc(/C(=C\CN2CCCC2)c2ccccn2)cc1 [Triprolidine hydrochloride],49,38.4,60.8
"Cc1cn(C2C=CC(CO)O2)c(=O)[nH]c1=O (stereo not given) [2',3'-didehydro-3'-deoxythymidine]",34.1,45.2,60
Cc1cc2c(cc1Cl)N(C(=O)Nc1cccc3ncccc13)CC2,34.3,26.4,40
CC[C@H](CO)Nc1nc(NCc2ccccc2)c2ncn(C(C)C)c2n1 [Roscovitine],32.7,31.6,55.2
Cc1cc(NC2CCCCC2)nc(-n2nc(C)cc2C)n1,32.5,33.1,61.7
C(=C\c1ccccc1)/CN1CCN(C(c2ccccc2)c2ccccc2)CC1 [Cinnarizine],5.26,7.7,16.8
CCN(CC)CCCCCCCCOC(=O)c1cc(OC)c(OC)c(OC)c1 [TMB-8 hydrochloride],36.4,36.5,65.4
CC[N+](CC)(CC)CCOc1ccc(/C=C/c2ccccc2)cc1,81,73.7,68.4
CN(C)CCC=C1c2ccccc2COc2ccccc21 [Doxepin hydrochloride],31.9,40,55.5
Nc1ncnc2c1nc(Sc1ccc(Cl)cc1)n2C1OC2COP(=O)(O)O[C@@H]2[C@@H]1O (stereo not given in full) [8-(4-Chlorophenylthio)-cAMP sodium],52.3,42.3,58.9
CCOC(=O)C1=C(C)NC(C)=C(C(=O)OC)C1c1cccc([N+](=O)[O-])c1 (stereo not given) [Nitrendipine],84.6,81,76.2
CN(C)C(=O)[C@H](O)[C@H](Cc1ccccc1)NC(=O)c1cc2cc(Cl)ccc2[nH]1,20.3,30.9,42.7
COCCNC(=O)COc1ccc(OCCNC[C@H](O)COc2ccccc2)cc1 [ZD 7114 hydrochloride],38.9,42.5,55.8
NOCC(=O)O [O-(Carboxymethyl)hydroxylamine hemihydrochloride],18,7.78,40.2
Cc1cc(Cl)ccc1OCCCC(=O)NO [Droxinostat],5.79,-0.556,22.2
CC(N)C(=O)OC(C)(C)Cc1ccc(Cl)cc1 (stereo not given) [Alaproclate hydrochloride],45.7,41.7,59
CC12CC3CC(C)(C1)CC(N)(C3)C2 [Memantine hydrochloride],32.4,29.9,57.4
CN(C(=O)CCCOc1ccc2[nH]c(=O)ccc2c1)C1CCCCC1 [Cilostamide],48,49.2,56.3
Nc1cc2c(ncn2CCOCP(=O)(O)O)c(=O)[nH]1 [PMEG hydrate],40.4,38.9,72.1
Nc1nc(N)c2nc(CNc3ccc(C(=O)N[C@@H](CCC(=O)O)C(=O)O)cc3)cnc2n1 [Aminopterin],43.8,44.7,64.9
COc1ccc(Cl)cc1C(=O)NCCc1ccc(S(=O)(=O)NC(=O)NC2CCCCC2)cc1 [Glybenclamide],11.1,0.715,27.9
CCCOC(=O)c1c(-c2ccccc2)nc(CC)c(C(=O)SCC)c1CCC,34.6,50.4,55.5
N[C@@H](COP(=O)(O)O)C(=O)O [O-Phospho-L-serine],38.9,37.9,58.1
COCCCC/C(=N\OCCN)c1ccc(C(F)(F)F)cc1 [Fluvoxamine maleate],35.5,35.5,49.8
N[C@@H](Cc1ccc(F)cc1)C(=O)O [p-Fluoro-L-phenylalanine],29.6,35.7,55.1
N=c1ccn2c(n1)O[C@H]1[C@H](O)[C@@H](CO)O[C@H]12 [Ancitabine hydrochloride],38.2,39.3,47.4
COc1ccc(CN(CCN(C)C)c2ccccn2)cc1 [Pyrilamine maleate],32,40.2,58.1
"CN(C)C(=O)N=NC(=O)N(C)C [N,N,N',N'-Tetramethylazodicarboxamide]",24,29.9,44.4
Cc1cc(Nc2ncc3cc(-c4c(Cl)cccc4Cl)c(=O)n(C)c3n2)ccc1F,5.21,-13.7,18.4

# Three structures out of the list, sorted by count of non-hydrogen atoms, rising:
Compound,general growth inhibition [1] [%],growth inhibition [2] [%],growth inhibition [3] [%]
N[C@@H](Cc1ccc(F)cc1)C(=O)O [p-Fluoro-L-phenylalanine],29.6,35.7,55.1
Cc1cc(Cl)ccc1OCCCC(=O)NO [Droxinostat],5.79,-0.556,22.2
Nc1cc2c(ncn2CCOCP(=O)(O)O)c(=O)[nH]1 [PMEG hydrate],40.4,38.9,72.1
